The values below come from publication PMC6193001.

No constants are given. Whether binding was seen depends on the method and setting. Binding seen in cells or lysates may run through a third protein. Some binding calls cover weakened binding; strength is not graded here.

This assay concerns the target T1, serine protease inhibitor Kazal type I (SPINK1) (human) (UniProt P00995).
T1 sequence: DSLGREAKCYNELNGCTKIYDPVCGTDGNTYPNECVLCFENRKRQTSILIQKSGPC
The experiment in a line: co-IP; anti-SPINK1 antibody (Abnova, 4 ug) added to cleared whole cell lysates of PC3 cells treated for 3 days by the CM of PSC27 sublines; lysis buffer 40 mM HEPES pH 7.5, 120 mM NaCl, 1 mM EDTA, 0.3% CHAPS; protein A/G-agarose, 4 °C; immunoblot of EGFR and SPINK1. Background: A western blot detects proteins with antibodies after separation by electrophoresis.

Consider “EGFR (from UniProt P00533 25-1210) (receptor)”, for which the binding entry is on record as “binds”.
